# Primary screen of a compound library

Protein sequences, listed by entry. Tags and fused reporters are not part of them.
UniProt E9BF75, entry or part of it: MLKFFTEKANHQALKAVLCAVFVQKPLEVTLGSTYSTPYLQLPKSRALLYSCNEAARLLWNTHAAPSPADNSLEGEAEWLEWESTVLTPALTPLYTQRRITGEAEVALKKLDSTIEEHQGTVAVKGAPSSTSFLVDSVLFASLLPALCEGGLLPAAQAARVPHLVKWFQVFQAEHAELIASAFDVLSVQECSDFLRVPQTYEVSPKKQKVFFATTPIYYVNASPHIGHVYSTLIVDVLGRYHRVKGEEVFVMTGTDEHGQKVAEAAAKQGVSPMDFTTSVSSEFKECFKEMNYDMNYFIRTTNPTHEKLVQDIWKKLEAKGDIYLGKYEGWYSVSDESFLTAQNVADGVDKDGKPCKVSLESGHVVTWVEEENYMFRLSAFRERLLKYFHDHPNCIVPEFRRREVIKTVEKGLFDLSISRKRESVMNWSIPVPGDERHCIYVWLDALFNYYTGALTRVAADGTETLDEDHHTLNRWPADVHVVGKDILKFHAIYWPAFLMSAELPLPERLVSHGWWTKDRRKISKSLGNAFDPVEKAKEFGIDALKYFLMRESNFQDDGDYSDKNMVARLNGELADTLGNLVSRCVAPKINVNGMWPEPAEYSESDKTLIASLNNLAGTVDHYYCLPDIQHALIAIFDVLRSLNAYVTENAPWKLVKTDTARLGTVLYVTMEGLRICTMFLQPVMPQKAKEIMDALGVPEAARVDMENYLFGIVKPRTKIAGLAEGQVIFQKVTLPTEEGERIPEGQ

From ChEMBL document CHEMBL3988442, “University of Dundee, Small-Polar-MMV Screening Library” (2021).

Mtb heat-shock: 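Assay on Mycobacterium tuberculosis, filed only as a heat shock assay from Cornell; the read-out is not stated. The concentration is filed as 10 mM, unlikely as a test dose, so the dose is not known. Direction is inferred from retests: higher values go with stronger inhibition. Size under these conditions: about 69,000 compounds, about 930 of them at 50% or above in at least one test.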
LdMetRS: 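Methionyl-tRNA synthetase (putative), Leishmania donovani (UniProt E9BF75). Primary screen of methionyl-tRNA synthetase; the read-out is not stated. The test concentration is not given. Values are per cent inhibition. Size under these conditions: about 68,000 compounds, about 24 of them at 50% or above in at least one test.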
Mtb growth Cornell: 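Whole-cell assay for inhibitors of Mycobacterium tuberculosis growth, labelled Cornell in the record; the read-out is not stated. The concentration is filed as 10 mM, unlikely as a test dose, so the dose is not known. The record gives no direction; compounds strong in two other growth screens of this library score well above the rest, so higher reads as stronger inhibition. Of about 53,000 compounds tested this way, about 900 (1.7%) reached 50% or more in at least one test.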

Results are percentages, as filed. The record does not define 0% and 100%; most values in the screen are far below 50% and negative numbers occur (in some assays of this library far below -100). This is an unselected part of the compounds tested. A dash means the value is not listed here; it may have been measured.

| structure | Mtb heat-shock | LdMetRS | Mtb growth Cornell |
|---|---|---|---|
| `Cc1cn(Cc2ccccc2)nc1N` | -2.724 | 10.54 | -5.33 |
| `CCc1nccn1CCNC1CCN(c2nc3ccc(Cl)cc3s2)CC1` | 31.06 | 15.16 | 15.62 |
| `CCC(NC(=O)NCc1nncn1CC)c1ccc(OC)cc1` (stereo unspecified) | 1.641 | 21.56 | -32.24 |
| `CCc1nc(CN2CCN(C(=O)c3csc(C(C)C)n3)CC2)no1` | -17.39 | 2.994 | -29.24 |
| `O=C1CC[C@@H](C(=O)N2CCC(Cn3cc(C4CCCCC4)nn3)CC2)N1` | 9.855 | 9.422 | 13.44 |
| `CS(=O)(=O)N1CCCC12CCCN(C(=O)c1ccnnc1)C2` (stereo unspecified) | 12 | 9.278 | 10.25 |
| `CC1CCN(C(=O)CN(Cc2ccco2)C2CC2)CC1` | -12.24 | 9.722 | - |
| `CNc1cc(C2CCCN2Cc2ccccc2C(=O)O)ccn1` (stereo unspecified) | -4.086 | 16.78 | 10.69 |
| `Cc1nccn1CCN(C)C(=O)C1CCCN(C2CCOCC2)C1` (stereo unspecified) | 15.45 | 11.76 | -31.61 |
| `CC(C)c1nnc2n1CCN(C(=O)COc1ccc(C(N)=O)cc1)C2` | 8.718 | 1.718 | 2.885 |
| `Cc1ccc2nc(CN3CCCCC3CCN3CCOCC3)cn2c1` (stereo unspecified) | -70.75 | 17.34 | 13.86 |
| `O=C(NC1CCN(C2CC2)CC1)c1cn(-c2ccc(Cl)cc2)nn1` | -16.04 | 10.89 | -8.148 |
| `CCn1ccnc1CN(C)C(C(=O)O)c1ccc(C(C)(C)C#N)cc1` (stereo unspecified) | 23.01 | 18.39 | -8.491 |
| `COc1ccc(CN2C[C@H](O)C[C@H]2c2nc(-c3ccccc3)no2)cc1` | -4.777 | 1.629 | -18.85 |
| `O=C1CCOC[C@]2(CN(Cc3ccccc3)C[C@H]2c2ccccc2F)N1` | -8.435 | 11.64 | 45.16 |
| `CCOc1cccc(CCNC(=O)Cc2ccn[nH]2)n1` | -4.065 | 19.31 | -3.182 |
| `CC(=O)N1CCCC1c1nnn2cc(NCc3cccnc3)ccc12.O=C(O)C(F)(F)F.O=C(O)C(F)(F)F` (stereo unspecified) | 27.19 | - | 24.69 |
| `O=C(Nc1ccccc1Cn1cccn1)N1CCC(N2CCCC2)C1` (stereo unspecified) | -39.46 | 15.25 | 6.749 |
| `CSc1ccc(C)c(C(=O)N2CCCC(n3cncn3)C2)c1` (stereo unspecified) | -25.33 | 19.67 | - |
| `CC(=O)Nc1nc(C(=O)N2CCCC2c2noc(C3CC3)n2)cs1` (stereo unspecified) | 2.107 | 12.65 | - |
| `COc1ncc(C(=O)NCc2ccccc2)cn1` | 22.84 | 10.56 | 11.18 |
| `COCC(=O)N1C[C@@H](c2cccc(F)c2)[C@H]2[C@H]1CCCCCN2C(C)=O` | - | 5.901 | - |
| `CN(C)S(=O)(=O)N1C[C@@H]2CC[C@H](C1)N(Cc1ccc3[nH]ccc3c1)C2` | - | 7.092 | - |
| `COc1ccc(-n2cc(CNC(=O)c3cc[nH]n3)nn2)cc1` | 14.26 | 16.17 | 4.162 |
| `CN(Cc1csc(-c2ccccc2)n1)Cc1ncccc1C(=O)O` | -21.24 | 6.272 | - |
| `CN(C)CCn1ccc(NC(=O)NC(C)(C)c2nccs2)n1` | -16.67 | 8.791 | -7.703 |
| `OC(COc1ccc(F)cc1)CN1CCC(c2ccn[nH]2)CC1` (stereo unspecified) | -18.19 | 20 | - |
| `CC(C)n1ccnc1C1CCN(C(=O)c2ccccc2N(C)C)CC1` | 0.6989 | 7.358 | 4.321 |
| `CCS(=O)(=O)N1CCC2(CC1)CN(Cc1ccccn1)C(=O)CO2.O=C(O)C(F)(F)F` | -0.8435 | - | 1.414 |
| `c1ccc(Cc2noc(CN3CCOC(Cn4cncn4)C3)n2)cc1` (stereo unspecified) | -23.52 | 2.793 | - |
| `Cc1nc2c(c(N3CCCC(CO)C3)n1)CCN(Cc1ccco1)CC2` (stereo unspecified) | -10.17 | 9.677 | 10.47 |
| `[H][C@]12CN(C(=O)c3ccc(C)s3)C[C@@]1([H])OCCN(S(C)(=O)=O)C2` | -10.37 | - | -5.285 |
| `O=C(O)C(F)(F)F.[H][C@@]12CCN(c3cccnc3)C[C@]1([H])CN(C(=O)c1ccsc1)C2` | -4.246 | - | 12.64 |
| `COCCc1noc(CN2CCCC2c2c(C)nn(C)c2Cl)n1` (stereo unspecified) | 1.371 | 13.71 | -12.21 |
| `Cc1ccc(C)c(CS(=O)(=O)CC(=O)NCCCOC(C)C)c1` | -6.474 | 22.73 | - |
| `Cc1ccsc1CN1CCc2nc3ccsc3c(=O)n2CC1` | - | 18.12 | - |
| `O=C(CN1CCCCC1=O)N1CCC2(CC1)[C@H](O)C[C@@H]2O` | -8.907 | 4.604 | 26.94 |
| `COC(=O)c1cccnc1N1CCC(Oc2cccc(F)c2)CC1` | 17.59 | 12.11 | 19.04 |
| `COc1ccc(C)nc1NC(=O)Cc1c(C)nn(C)c1C` | -3.433 | 5.866 | -2.213 |

Once more, the final 4:

Cc1ccsc1CN1CCc2nc3ccsc3c(=O)n2CC1 read LdMetRS: 18.12%.
O=C(CN1CCCCC1=O)N1CCC2(CC1)[C@H](O)C[C@@H]2O read Mtb heat-shock: -8.907%; LdMetRS: 4.604%; Mtb growth Cornell: 26.94%.
COC(=O)c1cccnc1N1CCC(Oc2cccc(F)c2)CC1 read Mtb heat-shock: 17.59%; LdMetRS: 12.11%; Mtb growth Cornell: 19.04%.
COc1ccc(C)nc1NC(=O)Cc1c(C)nn(C)c1C read Mtb heat-shock: -3.433%; LdMetRS: 5.866%; Mtb growth Cornell: -2.213%.